No constants are given. Whether binding was seen depends on the method and setting. In cells and extracts the contact can be indirect. Some entries that bind do so weakly or less than the wild type.
Experiments:
[1] = target: GPR31 (GST pull-down) (human) (UniProt O00270); assay: pull-down; GST-fusion protein pull-down of GPR31 and GNAI3; no further details shown
GPR31 (GPR31-WT) (human) = GPR31 (GPR31-WT) (human) (UniProt O00270); assay: co-IP; HEK293T cells transfected 24 h; IP lysis buffer (20 mM Tris-HCl, 150 mM NaCl, 1 mM EDTA, 1% NP-40, pH 7.4); protein A/G agarose beads and specific antibodies 4 h at 4°C; Western blot; some panels with or without G4451

By UniProt entry, the sequences of proteins in these tests, tags left out.
UniProt O00270: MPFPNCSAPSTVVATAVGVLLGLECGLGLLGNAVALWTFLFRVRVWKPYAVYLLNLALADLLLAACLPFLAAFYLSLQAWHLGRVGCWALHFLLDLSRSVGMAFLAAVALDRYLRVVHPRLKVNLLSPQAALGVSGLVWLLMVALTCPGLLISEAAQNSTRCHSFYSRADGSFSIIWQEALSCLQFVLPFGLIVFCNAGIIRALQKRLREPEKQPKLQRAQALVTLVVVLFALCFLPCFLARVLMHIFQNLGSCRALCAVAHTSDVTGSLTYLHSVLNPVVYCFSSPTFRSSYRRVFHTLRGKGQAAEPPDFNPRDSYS
UniProt P08754: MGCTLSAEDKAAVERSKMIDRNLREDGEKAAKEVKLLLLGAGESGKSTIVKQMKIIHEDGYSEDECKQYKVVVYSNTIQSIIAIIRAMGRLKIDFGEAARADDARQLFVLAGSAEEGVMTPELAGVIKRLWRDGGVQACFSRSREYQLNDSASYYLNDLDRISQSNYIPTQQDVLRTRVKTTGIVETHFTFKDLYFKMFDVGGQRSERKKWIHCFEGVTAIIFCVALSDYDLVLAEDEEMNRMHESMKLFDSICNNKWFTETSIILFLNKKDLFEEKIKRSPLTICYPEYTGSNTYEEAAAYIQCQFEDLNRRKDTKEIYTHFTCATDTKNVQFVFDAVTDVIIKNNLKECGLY

Row | binding [1] | binding (GPR31 (GPR31-WT) (human)) | Substance
1 | binds |  | Gαi3 (GNAI3) (GST pull-down) (from UniProt P08754 1-354)
2 |  | binds | Gαi3 (GNAI3) (from UniProt P08754 1-354)

— paper PMC12404741
